Substitutions are numbered along the chain they refer to. No constants are given. Whether binding was seen depends on the method and setting. Some results given as binding are weak or reduced against the parent protein; the word gives no strength. One block for each binder: values may come before it.
Target: human ROR2 (human) (UniProt Q01974)
Test: ELISA, scFv clones

Amino acid sequences for entries named in this document (tags omitted). A change or cut given only in a name is not applied to a line headed by its entry.
UniProt Q01974: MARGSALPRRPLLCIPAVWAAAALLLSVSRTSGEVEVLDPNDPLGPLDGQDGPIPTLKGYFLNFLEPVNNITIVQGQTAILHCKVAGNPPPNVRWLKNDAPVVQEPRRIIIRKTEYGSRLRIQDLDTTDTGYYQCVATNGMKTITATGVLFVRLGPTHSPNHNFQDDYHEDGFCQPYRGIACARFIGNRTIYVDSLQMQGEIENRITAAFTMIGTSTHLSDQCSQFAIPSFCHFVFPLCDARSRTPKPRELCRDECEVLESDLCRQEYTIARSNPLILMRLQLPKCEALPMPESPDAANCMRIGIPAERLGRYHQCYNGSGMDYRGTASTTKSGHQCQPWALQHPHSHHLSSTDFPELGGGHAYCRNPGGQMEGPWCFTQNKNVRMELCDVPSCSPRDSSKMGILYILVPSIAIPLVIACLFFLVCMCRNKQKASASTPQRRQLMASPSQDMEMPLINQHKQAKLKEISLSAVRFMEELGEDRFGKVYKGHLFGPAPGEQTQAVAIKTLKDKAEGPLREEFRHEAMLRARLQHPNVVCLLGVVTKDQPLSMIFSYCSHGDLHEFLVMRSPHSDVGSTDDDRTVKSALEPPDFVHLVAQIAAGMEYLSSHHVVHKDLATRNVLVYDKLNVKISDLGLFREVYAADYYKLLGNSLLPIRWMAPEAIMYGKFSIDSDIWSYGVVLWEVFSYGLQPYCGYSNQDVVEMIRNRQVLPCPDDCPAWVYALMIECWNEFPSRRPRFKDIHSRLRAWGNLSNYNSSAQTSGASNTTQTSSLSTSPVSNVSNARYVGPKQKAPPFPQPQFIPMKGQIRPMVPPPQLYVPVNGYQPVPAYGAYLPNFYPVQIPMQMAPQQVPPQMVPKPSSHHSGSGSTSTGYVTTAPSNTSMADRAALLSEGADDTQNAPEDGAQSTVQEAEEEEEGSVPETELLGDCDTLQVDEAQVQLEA

B1: h6E6-070 scFv clone (scFv, V domains shown)
VH: EVQLVESGGGLVKPGGSLRLSCAASGFTFSQYGHSWVRQAPGKGLEWVSTISSGGGYTHYAHSVKGRFTISRDNAKNSLYLQMNSLRAEDTAVYYCARHPRDFSYANDYWGQGTTVTVSS
VL: EIVMTQSPATLSVSPGERATLSCRASQDVGHYLAWYQQKPGQAPRLLIYWASTRATGIPARFSGSGSGTEFTLTISSLQSEDFAVYYCQQYNIYPWTFGQGTKVEIK
binding: binds

B2: h6E6-108 scFv clone (scFv, V domains shown)
VH: B1 VH with Q31R, H34V, H62E, N107M
VL: B1 VL with R24K
binding: binds

B3: h6E6-098 scFv clone (scFv, V domains shown)
VH: B1 VH with Q31A, H34V, H59Y, A61V, H62E, N107M
VL: B1 VL
binding: binds

B5: h6E6-086 scFv clone (scFv, V domains shown)
VH: B1 VH with H34M, A61V, H62T, N107K
VL: B1 VL with R24K, L33V
binding: binds

B6: h6E6-094 scFv clone (scFv, V domains shown)
VH: B1 VH with Q31R, H34Q, H62P, N107L
VL: B1 VL with L33V
binding: binds

B7: h6E6-073 scFv clone (scFv, V domains shown)
VH: B1 VH with Q31P, H34M, H59Y, H62A, N107M
VL: B1 VL with R24K, L33V
binding: binds

B8: h6E6-111 scFv clone (scFv, V domains shown)
VH: B1 VH with Q31T, H34M, S35N, H62E, N107V
VL: B1 VL with R24K
binding: binds

B10: h6E6-090 scFv clone (scFv, V domains shown)
VH: B1 VH with Q31T, H34T, H62P, N107L
VL: B1 VL with R24K, A55H
binding: binds

B13: h6E6-072 scFv clone (scFv, V domains shown)
VH: B1 VH with H62D, N107Q
VL: B1 VL with R24K, A55H
binding: binds

B16: h6E6-085 scFv clone (scFv, V domains shown)
VH: B1 VH with Q31H, H34A, S35N, H62T, N107V
VL: B1 VL with L33V, R54S
binding: binds

B18: h6E6-103 scFv clone (scFv, V domains shown)
VH: B1 VH with Q31N, H34M, A61V, H62D, N107M
VL: B1 VL with R24K
binding: binds

B19: h6E6-088 scFv clone (scFv, V domains shown)
VH: B1 VH with Q31G, H34A, H62P, N107Q
VL: B1 VL with R24K, L33V, A55H
binding: binds

B20: h6E6-115 scFv clone (scFv, V domains shown)
VH: B1 VH with Q31G, H34M, A61V, H62T, N107L
VL: B1 VL
binding: binds

B21: h6E6-079 scFv clone (scFv, V domains shown)
VH: B1 VH with Q31S, H34Q, H62P, N107M
VL: B1 VL with R24K, L33V, A55H
binding: binds

B22: h6E6-077 scFv clone (scFv, V domains shown)
VH: B1 VH with Q31H, H34T, H62P, N107I
VL: B1 VL with R24K, L33V
binding: binds

B23: h6E6-095 scFv clone (scFv, V domains shown)
VH: B1 VH with Q31G, H34V, A61V, H62D, N107L
VL: B1 VL
binding: binds

B25: h6E6-104 scFv clone (scFv, V domains shown)
VH: B1 VH with Q31S, H34V, A61V, H62E, N107Q
VL: B1 VL with R24K
binding: binds

B26: h6E6-083 scFv clone (scFv, V domains shown)
VH: B1 VH with Q31V, H34M, H62P, N107M
VL: B1 VL with R24K, L33V
binding: binds

B27: h6E6-082 scFv clone (scFv, V domains shown)
VH: B1 VH with Q31K, H34M, H62D, N107M
VL: B1 VL with R24K, A55H
binding: binds

B28: h6E6-092 scFv clone (scFv, V domains shown)
VH: B1 VH with Q31S, H34I, H62A, S63N, N107H
VL: B1 VL with R24K, L33V, A55H
binding: binds

B29: h6E6-105 scFv clone (scFv, V domains shown)
VH: B1 VH with Q31T, A61V, H62A, N107M
VL: B1 VL with L33V, A55H, T102I
binding: binds

B30: h6E6-114 scFv clone (scFv, V domains shown)
VH: B1 VH with Q31K, H34M, A61V, H62T, N107M
VL: B1 VL with R24K
binding: binds

B31: h6E6-097 scFv clone (scFv, V domains shown)
VH: B1 VH with Q31A, H34M, A61V, H62E, N107M
VL: B1 VL with R24K, L33V
binding: binds

B32: h6E6-109 scFv clone (scFv, V domains shown)
VH: B1 VH with Q31N, H34T, A61V, H62T, N107M
VL: B1 VL with R24K, L33V
binding: binds

B33: h6E6-076 scFv clone (scFv, V domains shown)
VH: B1 VH with Q31G, H34M, A61V, H62E, N107L
VL: B1 VL with R24K
binding: binds

B34: h6E6-102 scFv clone (scFv, V domains shown)
VH: B1 VH with Q31K, H34L, A61V, H62E, N107S
VL: B1 VL with R24K, L33V
binding: binds

B38: h6E6-101 scFv clone (scFv, V domains shown)
VH: B1 VH with L18Z, Q31F, H34M, H59Y, H62E, N107I
VL: B1 VL with L33V
binding: binds

B41: h6E6-091 scFv clone (scFv, V domains shown)
VH: B1 VH with Q31A, H34L, H62Q, N107F
VL: B1 VL with R24K
binding: binds

B42: h6E6-084 scFv clone (scFv, V domains shown)
VH: B1 VH with H34M, A61V, H62Q, N107Q
VL: B1 VL with R24K
binding: binds

B46: h6E6-116 scFv clone (scFv, V domains shown)
VH: B1 VH with Q31T, H34V, H62G, N107L
VL: B1 VL
binding: binds

B47: h6E6-075 scFv clone (scFv, V domains shown)
VH: B1 VH with Q31A, H34A, H62G, N107Q
VL: B1 VL with R24K
binding: binds

More lines, now with the values ahead:

binding: binds
B4: h6E6-099 scFv clone (scFv, V domains shown)
VH: B1 VH with Q31N, H34M, S35N, H62P, N107M
VL: B1 VL with R24K, L33V

binding: binds
B9: h6E6-074 scFv clone (scFv, V domains shown)
VH: B1 VH with Q31K, H34T, H62P, N107L
VL: B1 VL with R24K, A55H

binding: binds
B11: h6E6-087 scFv clone (scFv, V domains shown)
VH: B1 VH with Q31K, H34M, A61V
VL: B1 VL with L33V

binding: binds
B12: h6E6-107 scFv clone (scFv, V domains shown)
VH: B1 VH with Q31T, H34A, H62P, N107L
VL: B1 VL with R24K, L33V

binding: binds
B14: h6E6-078 scFv clone (scFv, V domains shown)
VH: B1 VH with Q31A, H34S, H62P, N107M
VL: B1 VL with R24K, L33V

binding: binds
B15: h6E6-112 scFv clone (scFv, V domains shown)
VH: B1 VH with Q31S, H34I, H62A, N107L
VL: B1 VL with R24K, L33V, A55H

binding: binds
B17: h6E6-113 scFv clone (scFv, V domains shown)
VH: B1 VH with Q31N, H34M, H62P, N107M
VL: B1 VL with R24K

binding: binds
B24: h6E6-089 scFv clone (scFv, V domains shown)
VH: B1 VH with Q31D, H34I, A61V, H62Q, N107M
VL: B1 VL with R24K

binding: binds
B35: h6E6-100 scFv clone (scFv, V domains shown)
VH: B1 VH with Q31H, H34L, A61V, H62D
VL: B1 VL with R24K, L33V, A55H

binding: binds
B36: h6E6-093 scFv clone (scFv, V domains shown)
VH: B1 VH with Q31G, H34M, S35N, A61V, H62E, N107M
VL: B1 VL with R24K

binding: binds
B37: h6E6-106 scFv clone (scFv, V domains shown)
VH: B1 VH with Q31S, H34I, H59Y, A61V, H62D, N107L
VL: B1 VL with R24K, L33V

binding: binds
B39: h6E6-081 scFv clone (scFv, V domains shown)
VH: B1 VH with Q31S, H34M, S35N, H62D, N107Q
VL: B1 VL with L33V, A55H

binding: binds
B40: h6E6-071 scFv clone (scFv, V domains shown)
VH: B1 VH with Q31H, H34M, H62E, N107F
VL: B1 VL with R24K, A55H

binding: binds
B43: h6E6-096 scFv clone (scFv, V domains shown)
VH: B1 VH with Q31N, H34V, H62P, N107Q
VL: B1 VL with L33V

binding: binds
B44: h6E6-080 scFv clone (scFv, V domains shown)
VH: B1 VH with Q31H, H34L, S35N, H62P
VL: B1 VL with R24K, L33V

binding: binds
B45: h6E6-110 scFv clone (scFv, V domains shown)
VH: B1 VH with Q31H, H34V, H62E, N107Q
VL: B1 VL

From patent US20260209348A1
